Laboratory results from patent US20260199218A1, “USE OF CELL MEMBRANE-BOUND SIGNALING FACTORS” (AIVITA Biomedical, Inc., priority 2017, published 2026).

System: hESC
Assay: Capture of Wnt and SHh from embryonic stem cell cultures by cyclodextrin solution
Type: cell-based, human
Settings: 10 mM cyclodextrin

SMILES: OC[C@H]1O[C@@H]2O[C@H]3[C@H](O)[C@@H](O)[C@@H](O[C@H]4[C@H](O)[C@@H](O)[C@@H](O[C@H]5[C@H](O)[C@@H](O)[C@@H](O[C@H]6[C@H](O)[C@@H](O)[C@@H](O[C@H]7[C@H](O)[C@@H](O)[C@@H](O[C@H]1[C@H](O)[C@H]2O)O[C@@H]7CO)O[C@@H]6CO)O[C@@H]5CO)O[C@@H]4CO)O[C@@H]3CO [α-cyclodextrin]
- Capture effect compared to that observed with MBCD: reduced but proportional effect

SMILES: OC[C@H]1O[C@@H]2O[C@H]3[C@H](O)[C@@H](O)[C@@H](O[C@H]4[C@H](O)[C@@H](O)[C@@H](O[C@H]5[C@H](O)[C@@H](O)[C@@H](O[C@H]6[C@H](O)[C@@H](O)[C@@H](O[C@H]7[C@H](O)[C@@H](O)[C@@H](O[C@H]8[C@H](O)[C@@H](O)[C@@H](O[C@H]1[C@H](O)[C@H]2O)O[C@@H]8CO)O[C@@H]7CO)O[C@@H]6CO)O[C@@H]5CO)O[C@@H]4CO)O[C@@H]3CO [β-cyclodextrin]
- Capture effect compared to that observed with MBCD: reduced but proportional effect
